Some of the results follow.
Columns and labels:
Experiment in all cases: glycan array binding signal (z-score within array); higher = stronger binding
Conditions in all cases: glycan notation: IUPAC condensed, linker removed
[1] = molecular target: Man(a1-2)Man(a1-3)[Man(a1-6)]Man(a1-6)[Man(a1-2)Man(a1-3)]Man(b1-4)GlcNAc(b1-4)GlcNAc
How it was run: (§1)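 From the Consortium for Functional Glycomics database, 3228 arrays were curated, keeping only those whose protein sequence was available. Binding is given as a within-array Z-score averaged across arrays sharing a protein sequence and across linkers. Negative Z-scores can be read as non-binding.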

[2] = molecular target: Man(a1-2)Man(a1-6)[Man(a1-3)]Man(a1-6)[Man(a1-2)Man(a1-2)Man(a1-3)]Man
How it was run: as §1

[3] = molecular target: Man(a1-2)Man(a1-6)[Man(a1-3)]Man(a1-6)[Man(a1-2)Man(a1-2)Man(a1-3)]Man(b1-4)GlcNAc(b1-4)GlcNAc
How it was run: as §1

[4] = molecular target: Man(a1-3)[Man(a1-6)]Man
How it was run: as §1

[5] = molecular target: Man(a1-3)[Man(a1-6)]Man(a1-6)[Man(a1-2)Man(a1-3)]Man(b1-4)GlcNAc(b1-4)GlcNAc
How it was run: as §1

[6] = molecular target: Man(a1-3)[Man(a1-6)]Man(a1-6)[Man(a1-3)]Man
How it was run: as §1

[7] = molecular target: Man(a1-3)[Man(a1-6)]Man(a1-6)[Man(a1-3)]Man(b1-4)GlcNAc(b1-4)GlcNAc
How it was run: as §1

[8] = molecular target: Man(a1-3)[Man(a1-6)]Man(b1-4)GlcNAc(b1-4)GlcNAc
How it was run: as §1

[9] = molecular target: Man(a1-6)Man
How it was run: as §1

[10] = molecular target: Man(b1-4)GlcNAc
How it was run: as §1

[11] = molecular target: Neu5Ac(a2-3)Gal
How it was run: as §1

[12] = molecular target: Neu5Ac(a2-3)Gal(b1-3)GalNAc
How it was run: as §1

[13] = molecular target: Neu5Ac(a2-3)Gal(b1-3)GalNAc(b1-3)Gal(a1-4)Gal(b1-4)Glc
How it was run: as §1

[14] = molecular target: Neu5Ac(a2-3)Gal(b1-3)GalNAc(b1-4)[Neu5Ac(a2-3)]Gal(b1-4)Glc
How it was run: as §1

[15] = molecular target: Neu5Ac(a2-3)Gal(b1-3)GalNAc(b1-4)[Neu5Ac(a2-8)Neu5Ac(a2-3)]Gal(b1-4)Glc
How it was run: as §1

[16] = molecular target: Neu5Ac(a2-3)Gal(b1-3)GalNAc6S
How it was run: as §1

[17] = molecular target: Neu5Ac(a2-3)Gal(b1-3)GlcNAc
How it was run: as §1

[18] = molecular target: Neu5Ac(a2-3)Gal(b1-3)GlcNAc(b1-3)Gal(b1-3)GlcNAc
How it was run: as §1

[19] = molecular target: Neu5Ac(a2-3)Gal(b1-3)GlcNAc(b1-3)Gal(b1-4)GlcNAc
How it was run: as §1

[20] = molecular target: Neu5Ac(a2-3)Gal(b1-3)GlcNAc(b1-3)GalNAc
How it was run: as §1

[21] = molecular target: Neu5Ac(a2-3)Gal(b1-3)GlcNAc6S
How it was run: as §1

[22] = molecular target: Neu5Ac(a2-3)Gal(b1-3)[Fuc(a1-4)]GlcNAc
How it was run: as §1

[23] = molecular target: Neu5Ac(a2-3)Gal(b1-3)[Fuc(a1-4)]GlcNAc(b1-3)Gal(b1-3)[Fuc(a1-4)]GlcNAc
How it was run: as §1

[24] = molecular target: Neu5Ac(a2-3)Gal(b1-3)[Fuc(a1-4)]GlcNAc(b1-3)Gal(b1-4)[Fuc(a1-3)]GlcNAc
How it was run: as §1

[25] = molecular target: Neu5Ac(a2-3)Gal(b1-3)[Neu5Ac(a2-3)Gal(b1-4)]GlcNAc
How it was run: as §1

[26] = molecular target: Neu5Ac(a2-3)Gal(b1-3)[Neu5Ac(a2-6)]GalNAc
How it was run: as §1

[27] = molecular target: Neu5Ac(a2-3)Gal(b1-4)Glc
How it was run: as §1

[28] = molecular target: Neu5Ac(a2-3)Gal(b1-4)GlcNAc
How it was run: as §1

[29] = molecular target: Neu5Ac(a2-3)Gal(b1-4)GlcNAc(b1-2)Man(a1-3)[GlcNAc(b1-2)Man(b1-4)GlcNAc(b1-2)Man(a1-6)]Man(b1-4)GlcNAc(b1-4)GlcNAc
How it was run: as §1

[30] = molecular target: Neu5Ac(a2-3)Gal(b1-4)GlcNAc(b1-2)Man(a1-3)[Neu5Ac(a2-6)Gal(b1-4)GlcNAc(b1-2)Man(a1-6)]Man(b1-4)GlcNAc(b1-4)GlcNAc
How it was run: as §1

[31] = molecular target: Neu5Ac(a2-3)Gal(b1-4)GlcNAc(b1-3)Gal
How it was run: as §1

[32] = molecular target: Neu5Ac(a2-3)Gal(b1-4)GlcNAc(b1-3)Gal(b1-3)GlcNAc
How it was run: as §1

[33] = molecular target: Neu5Ac(a2-3)Gal(b1-4)GlcNAc(b1-3)Gal(b1-4)GlcNAc
How it was run: as §1

[34] = molecular target: Neu5Ac(a2-3)Gal(b1-4)GlcNAc(b1-3)Gal(b1-4)GlcNAc(b1-3)Gal(b1-4)GlcNAc
How it was run: as §1

[35] = molecular target: Neu5Ac(a2-3)Gal(b1-4)GlcNAc(b1-3)Gal(b1-4)[Fuc(a1-3)]GlcNAc
How it was run: as §1

[36] = molecular target: Neu5Ac(a2-3)Gal(b1-4)GlcNAc(b1-3)GalNAc
How it was run: as §1

[37] = molecular target: Neu5Ac(a2-3)Gal(b1-4)GlcNAc(b1-6)[Gal(b1-3)]GalNAc
How it was run: as §1

[38] = molecular target: Neu5Ac(a2-3)Gal(b1-4)GlcNAc(b1-6)[Neu5Ac(a2-3)Gal(b1-3)]GalNAc
How it was run: as §1

[39] = molecular target: Neu5Ac(a2-3)Gal(b1-4)GlcNAc6S
How it was run: as §1

[40] = molecular target: Neu5Ac(a2-3)Gal(b1-4)[Fuc(a1-3)]GlcNAc
How it was run: as §1

[41] = molecular target: Neu5Ac(a2-3)Gal(b1-4)[Fuc(a1-3)]GlcNAc(b1-3)Gal
How it was run: as §1

[42] = molecular target: Neu5Ac(a2-3)Gal(b1-4)[Fuc(a1-3)]GlcNAc(b1-3)Gal(b1-4)GlcNAc
How it was run: as §1

[43] = molecular target: Neu5Ac(a2-3)Gal(b1-4)[Fuc(a1-3)]GlcNAc(b1-3)Gal(b1-4)[Fuc(a1-3)]GlcNAc(b1-3)Gal(b1-4)[Fuc(a1-3)]GlcNAc
How it was run: as §1

[44] = molecular target: Neu5Ac(a2-3)Gal(b1-4)[Fuc(a1-3)]GlcNAc(b1-3)GalNAc
How it was run: as §1

[45] = molecular target: Neu5Ac(a2-3)Gal(b1-4)[Fuc(a1-3)]GlcNAc(b1-6)[Gal(b1-3)]GalNAc
How it was run: as §1

[46] = molecular target: Neu5Ac(a2-3)Gal(b1-4)[Fuc(a1-3)]GlcNAc6S
How it was run: as §1

[47] = molecular target: Neu5Ac(a2-3)Gal6S(b1-4)GlcNAc
How it was run: as §1

[48] = molecular target: Neu5Ac(a2-3)Gal6S(b1-4)[Fuc(a1-3)]GlcNAc
How it was run: as §1

[49] = molecular target: Neu5Ac(a2-3)GalNAc
How it was run: as §1

[50] = molecular target: Neu5Ac(a2-3)GalNAc(b1-4)GlcNAc
How it was run: as §1

[51] = molecular target: Neu5Ac(a2-3)[GalNAc(b1-4)]Gal(b1-4)Glc
How it was run: as §1

[52] = molecular target: Neu5Ac(a2-3)[GalNAc(b1-4)]Gal(b1-4)GlcNAc
How it was run: as §1

[53] = molecular target: Neu5Ac(a2-3)[GalNAc(b1-4)]Gal(b1-4)GlcNAc(b1-3)GalNAc
How it was run: as §1

[54] = molecular target: Neu5Ac(a2-3)[Neu5Ac(a2-6)]GalNAc
How it was run: as §1

[55] = molecular target: Neu5Ac(a2-6)Gal
How it was run: as §1

[56] = molecular target: Neu5Ac(a2-6)Gal(b1-3)GlcNAc(b1-3)[Gal(b1-4)GlcNAc(b1-6)]Gal(b1-4)Glc
How it was run: as §1

[57] = molecular target: Neu5Ac(a2-6)Gal(b1-4)Glc
How it was run: as §1

[58] = molecular target: Neu5Ac(a2-6)Gal(b1-4)GlcNAc
How it was run: as §1

[59] = molecular target: Neu5Ac(a2-6)Gal(b1-4)GlcNAc(b1-2)Man(a1-3)Man(b1-4)GlcNAc(b1-4)GlcNAc
How it was run: as §1

[60] = molecular target: Neu5Ac(a2-6)Gal(b1-4)GlcNAc(b1-2)Man(a1-3)[Gal(b1-4)GlcNAc(b1-2)Man(a1-6)]Man(b1-4)GlcNAc(b1-4)GlcNAc
How it was run: as §1

B1: NanH (Corynebacterium diphtheriae), C6JSW6 (protein)
chain: MYSSNRTYSRAILGLSAVLTLSFTSLVAPVNAEEPETVVPATAELEGEVAATLPSAETGLLDAAPPKPVARGAAGDLQLPAVNEKEVFEEGRVIRAPEPDQSRCYRIPALVTAKNGDLLLAFDNRYGGGDGAKTWCRDAPYENMKRINRQNMQTDIQLYRSVDNGQSFEDFGYIAQGTADVRELSYTDPALVTDRTTGKIFAFFVRAYDYRVGQSSAGFNEGDVEAEIQKRDVQDTVVVESLDGGQTWGNMRLLSALTAKVSSISTGDTIFDGRGRFVTSGAGIQLQYGEHAGRLIVPISVDIDPKDSAKFINLAIYSDDHGQTWQAGIGTAGGAGFSGDVSKIVELSDGRLMMSSKDNDKPRWVSYSEDQGENWSTPKRKIIAPPQHPEKHNTGINVGLIRAYPNAPENSAAARVLLYSAPIDQRYSHKHTEDGRNNGWVMGSCDDGKTWSFGRQIEKNRFQYSSMTVMSDGNIGMVYESGDFSTGMNLKFAKFNMAWLGADCHSNEALGLTGDIDKEIVEAQEKAAEATKEAQEAAEKVQKLTEELAAARKENDELKNQVKGFKEAVGDLANEAEDLADKVFKLETAVTEAKEKATVAEKAASDAVTQLQKAESIAEEQKAKAESAAAEAQALREKLERLEGSILTVKENPEAEEIADLSSTAKDAADAARRAATDANGALSGQKQDEEKPAMGLMGILKVLAGIIPLVAIIATIFQTFRLPFNIPGMR
glycan array binding signal (z-score) [1]: -0.263 | glycan array binding signal (z-score) [2]: -0.745 | glycan array binding signal (z-score) [3]: -1.3 | glycan array binding signal (z-score) [4]: -0.151 | glycan array binding signal (z-score) [5]: -0.608 | glycan array binding signal (z-score) [6]: 0.012 | glycan array binding signal (z-score) [7]: -0.41 | glycan array binding signal (z-score) [8]: -0.475 | glycan array binding signal (z-score) [9]: 0.247 | glycan array binding signal (z-score) [10]: -0.567 | glycan array binding signal (z-score) [11]: 0.353 | glycan array binding signal (z-score) [12]: -0.593 | glycan array binding signal (z-score) [13]: -1.15 | glycan array binding signal (z-score) [14]: -0.204 | glycan array binding signal (z-score) [15]: -1.39 | glycan array binding signal (z-score) [16]: 1.83 | glycan array binding signal (z-score) [17]: 0.707 | glycan array binding signal (z-score) [18]: -0.097 | glycan array binding signal (z-score) [19]: 0.292 | glycan array binding signal (z-score) [20]: 2.18 | glycan array binding signal (z-score) [21]: -0.246 | glycan array binding signal (z-score) [22]: -0.383 | glycan array binding signal (z-score) [23]: 0.874 | glycan array binding signal (z-score) [24]: -0.505 | glycan array binding signal (z-score) [25]: 0.277 | glycan array binding signal (z-score) [26]: 0.915 | glycan array binding signal (z-score) [27]: -0.854 | glycan array binding signal (z-score) [28]: 0.221 | glycan array binding signal (z-score) [29]: 0.603 | glycan array binding signal (z-score) [30]: 0.27 | glycan array binding signal (z-score) [31]: -0.21 | glycan array binding signal (z-score) [32]: -0.216 | glycan array binding signal (z-score) [33]: -0.265 | glycan array binding signal (z-score) [34]: -1.33 | glycan array binding signal (z-score) [35]: 1.67 | glycan array binding signal (z-score) [36]: -0.067 | glycan array binding signal (z-score) [37]: 0.096 | glycan array binding signal (z-score) [38]: 1.28 | glycan array binding signal (z-score) [39]: 0.263 | glycan array binding signal (z-score) [40]: -0.681 | glycan array binding signal (z-score) [41]: -0.518 | glycan array binding signal (z-score) [42]: 1.67 | glycan array binding signal (z-score) [43]: -1.45 | glycan array binding signal (z-score) [44]: 0.742 | glycan array binding signal (z-score) [45]: 0.351 | glycan array binding signal (z-score) [46]: -1 | glycan array binding signal (z-score) [47]: -1.04 | glycan array binding signal (z-score) [48]: -0.72 | glycan array binding signal (z-score) [49]: -0.952 | glycan array binding signal (z-score) [50]: -1.16 | glycan array binding signal (z-score) [51]: 0.651 | glycan array binding signal (z-score) [52]: -0.594 | glycan array binding signal (z-score) [53]: -0.358 | glycan array binding signal (z-score) [54]: -0.803 | glycan array binding signal (z-score) [55]: -1.05 | glycan array binding signal (z-score) [56]: 0.06 | glycan array binding signal (z-score) [57]: 0.051 | glycan array binding signal (z-score) [58]: 0.068 | glycan array binding signal (z-score) [59]: -0.294 | glycan array binding signal (z-score) [60]: 0.061
